Data source: PubChem BioAssay AID1671195 (Yale University, 2021)

- Aim: 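Genes whose knockdown alters LDL uptake in liver cancer cells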 (primary screen)
- Cells: human Huh7 hepatoma cells
- Reagents: siRNA pool against human genes, 18 nM
- Timing: about 2 to 2.5 days of knockdown, then 8 h LDL uptake
- Conditions: DiI-labelled LDL at 30 µg/ml for 8 h, in lipoprotein-deficient serum medium
- Measurement: 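Per-cell DiI-LDL intensity by automated imaging; well means scaled to the plate median and given as a robust z-score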
- Direction: robust z-score: higher = more LDL uptake after knockdown
- Call rule: 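a gene counts as active if at least two replicate z-scores exceed ±2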
Shown is a random part of about 22,000 reagents. About 1,510 of all reagents (6.9%) count as active. 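Active includes knockdowns raising or lowering LDL uptake; positive z-scores mean more uptake, negative mean less.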 Entries without a mark were called inactive. No sequences are given here.

What did the screen give for DGKQ (diacylglycerol kinase theta)?
robust z-score, replicate 1: -0.2; robust z-score, replicate 2: -0.575; robust z-score, replicate 3: -1.23

With IL19 (interleukin 19), how do the results read?
robust z-score, replicate 1: -1.09; robust z-score, replicate 2: 0.964; robust z-score, replicate 3: 0.354

What did the screen give for PTPRA (protein tyrosine phosphatase receptor type A)?
robust z-score, replicate 1: 0.508; robust z-score, replicate 2: 0.312; robust z-score, replicate 3: 0.428

With RNF7 (ring finger protein 7), what does the deposit list?
robust z-score, replicate 1: -0.126; robust z-score, replicate 2: -0.534; robust z-score, replicate 3: 0.23

What is on record for POLH (DNA polymerase eta)?
robust z-score, replicate 1: 1.13; robust z-score, replicate 2: -0.0893; robust z-score, replicate 3: 0.327

With LINC02864 (long independently transcribed non-coding RNA 2864), what does the deposit list?
robust z-score, replicate 1: 0.244; robust z-score, replicate 2: 0.367; robust z-score, replicate 3: 0.0886

Which result is listed for DRAXIN (dorsal inhibitory axon guidance protein)?
robust z-score, replicate 1: -0.503; robust z-score, replicate 2: -0.0452; robust z-score, replicate 3: 0.0135

With PCBP2 (poly(rC) binding protein 2), what does the deposit list?
robust z-score, replicate 1: 0.595; robust z-score, replicate 2: 1.16; robust z-score, replicate 3: 1.59

What did the screen give for CYP2C18 (cytochrome P450 family 2 subfamily C member 18)?
robust z-score, replicate 1: -0.0978; robust z-score, replicate 2: 0.242; robust z-score, replicate 3: -0.115

How did the screen score EPHA6 (EPH receptor A6)?
robust z-score, replicate 1: 0.295; robust z-score, replicate 2: 0.0527; robust z-score, replicate 3: -0.187

With ZNF564 (zinc finger protein 564), what was measured?
robust z-score, replicate 1: -1.34; robust z-score, replicate 2: -1.66; robust z-score, replicate 3: -1.32

What is on record for CR2 (complement C3d receptor 2)?
robust z-score, replicate 1: -0.448; robust z-score, replicate 2: -1.02; robust z-score, replicate 3: -1.26

With CBLIF (cobalamin binding intrinsic factor), what does the deposit list?
robust z-score, replicate 1: 0.929; robust z-score, replicate 2: 2.74; robust z-score, replicate 3: 1.57

With GPN2 (GPN-loop GTPase 2), how do the results read?
robust z-score, replicate 1: 0.754; robust z-score, replicate 2: 1.78; robust z-score, replicate 3: 0.31

4 successive reagents already listed:
PCBP2 (poly(rC) binding protein 2) → robust z-score, replicate 1: 0.595; robust z-score, replicate 2: 1.16; robust z-score, replicate 3: 1.59
CYP2C18 (cytochrome P450 family 2 subfamily C member 18) → robust z-score, replicate 1: -0.0978; robust z-score, replicate 2: 0.242; robust z-score, replicate 3: -0.115
EPHA6 (EPH receptor A6) → robust z-score, replicate 1: 0.295; robust z-score, replicate 2: 0.0527; robust z-score, replicate 3: -0.187
ZNF564 (zinc finger protein 564) → robust z-score, replicate 1: -1.34; robust z-score, replicate 2: -1.66; robust z-score, replicate 3: -1.32

Continued:
Which result is listed for IDH3A (isocitrate dehydrogenase (NAD(+)) 3 catalytic subunit alpha)?
robust z-score, replicate 1: -0.0737; robust z-score, replicate 2: -0.367; robust z-score, replicate 3: -0.216

How did the screen score MYO1G (myosin IG)?
robust z-score, replicate 1: 0.672; robust z-score, replicate 2: 1.2; robust z-score, replicate 3: 0.683

With H2BC7 (H2B clustered histone 7), what was measured?
robust z-score, replicate 1: 0.125; robust z-score, replicate 2: 0.527; robust z-score, replicate 3: 0.621

With EIF1 (eukaryotic translation initiation factor 1), how do the results read?
robust z-score, replicate 1: 1.93; robust z-score, replicate 2: -0.66; robust z-score, replicate 3: 0.823

For LOC387983 (retired record), what does the deposit list?
robust z-score, replicate 1: 0.398; robust z-score, replicate 2: -0.62; robust z-score, replicate 3: -0.383

How did the screen score SRD5A2 (steroid 5 alpha-reductase 2)?
robust z-score, replicate 1: -0.211; robust z-score, replicate 2: -0.019; robust z-score, replicate 3: 0.129

What is on record for LOC441002 (retired record)?
robust z-score, replicate 1: 0.684; robust z-score, replicate 2: 0.289; robust z-score, replicate 3: 0.538

With STEAP2 (STEAP2 metalloreductase), what does the deposit list?
robust z-score, replicate 1: 0.36; robust z-score, replicate 2: 0.339; robust z-score, replicate 3: 0.152

How did the screen score RAB4A (RAB4A, member RAS oncogene family)?
robust z-score, replicate 1: -1.06; robust z-score, replicate 2: -1.41; robust z-score, replicate 3: -1.74

How did the screen score ATP7A (ATPase copper transporting alpha)?
robust z-score, replicate 1: 0.963; robust z-score, replicate 2: 0.967; robust z-score, replicate 3: 1.39
